# Test results published in publication PMC3643677.
# Amino acid sequences for entries named in this document (tags omitted).
# UniProt P40763: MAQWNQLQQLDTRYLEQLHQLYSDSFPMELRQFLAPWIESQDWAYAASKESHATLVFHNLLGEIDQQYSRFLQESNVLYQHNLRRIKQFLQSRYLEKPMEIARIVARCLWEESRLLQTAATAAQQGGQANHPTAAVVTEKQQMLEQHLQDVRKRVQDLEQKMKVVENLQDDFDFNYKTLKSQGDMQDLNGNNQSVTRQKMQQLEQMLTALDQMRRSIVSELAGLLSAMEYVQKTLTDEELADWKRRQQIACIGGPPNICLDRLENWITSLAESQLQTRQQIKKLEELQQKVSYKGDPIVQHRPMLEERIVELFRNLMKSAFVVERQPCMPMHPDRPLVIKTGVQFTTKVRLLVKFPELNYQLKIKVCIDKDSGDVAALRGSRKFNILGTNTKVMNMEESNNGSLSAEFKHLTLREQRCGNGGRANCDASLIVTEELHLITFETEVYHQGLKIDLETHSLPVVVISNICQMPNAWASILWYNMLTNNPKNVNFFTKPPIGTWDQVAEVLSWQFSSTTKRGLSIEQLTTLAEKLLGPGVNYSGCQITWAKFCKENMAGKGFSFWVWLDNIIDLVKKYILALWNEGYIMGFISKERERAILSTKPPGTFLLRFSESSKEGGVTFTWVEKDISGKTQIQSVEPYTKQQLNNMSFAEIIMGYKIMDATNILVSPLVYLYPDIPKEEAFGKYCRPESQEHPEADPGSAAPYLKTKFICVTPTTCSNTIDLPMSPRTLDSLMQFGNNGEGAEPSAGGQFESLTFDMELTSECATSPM
# UniProt P07355: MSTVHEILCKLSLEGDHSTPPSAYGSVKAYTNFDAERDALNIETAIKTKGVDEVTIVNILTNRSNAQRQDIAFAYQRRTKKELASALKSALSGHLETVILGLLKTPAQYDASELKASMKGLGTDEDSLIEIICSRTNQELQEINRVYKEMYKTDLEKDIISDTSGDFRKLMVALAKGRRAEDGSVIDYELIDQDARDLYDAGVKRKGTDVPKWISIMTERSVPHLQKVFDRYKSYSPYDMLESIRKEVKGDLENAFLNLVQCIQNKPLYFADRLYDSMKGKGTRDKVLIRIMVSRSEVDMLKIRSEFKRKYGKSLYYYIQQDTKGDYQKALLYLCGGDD
# No constants are given. Whether binding was seen depends on the method and setting. In cells and extracts the contact can be indirect. Some entries that bind do so weakly or less than the wild type.
# Legend:
# [1] = target: signal transducer and activator of transcription-3 (human (endogenous in SK-BR-3)) (UniProt P40763); experiment: co-IP; SK-BR-3 whole-cell lysate; immunoprecipitated with anti-Stat3 or anti-Anxa2 antibody and protein A/G (protein G-Sepharose) beads overnight; lysis buffer 50 mM Tris pH 7.4, 10% glycerol, 0.1% SDS, 10 mM NaF, 2 mM PMSF, 1 mM dithiothreitol; immunoblot
# [2] = target: Annexin A2 (human (endogenous in SK-BR-3)) (UniProt P07355); experiment: as above
binding [1],binding [2],Substance
binds,,Annexin A2 (from UniProt P07355 1-339)
,binds,signal transducer and activator of transcription-3 (from UniProt P40763 1-770)
